Values of other authors in US20020016293A1 (priority 2000, published 2002).
Where a name gives a salt, the structure may show the parent alone. Read-outs that look alike come from different tables or passages of the source.

Conditions: cited from earlier work

Compound	duration of action (intramuscular or subcutaneous)	onset of action (hydrochloride: oral or intramuscular, enanthate: after injection)	duration of action (oral or intramuscular)	duration of action (intramuscular or subcutaneous, listed as enanthate salt)
CCCCCCCCCC(=O)OCCN1CCN(CCCN2c3ccccc3Sc3ccc(C(F)(F)F)cc32)CC1 [Fluphenazine decanoate]	about 4 wk			
OCCN1CCN(CCCN2c3ccccc3Sc3ccc(C(F)(F)F)cc32)CC1 [Fluphenazine hydrochloride]		≤ 1 h	6 h	
CCCCCCC(=O)OCCN1CCN(CCCN2c3ccccc3Sc3ccc(C(F)(F)F)cc32)CC1 [Fluphenazine enanthate]	about 2 wk			2 wk
